In PubChem BioAssay AID493014 (National Center for Advancing Translational Sciences (NCATS), 2011):
Some of the results follow. Shown are side measurements of this screen, not its main read-out; they come without a call. Compounds called inactive in the main read-out are mostly missing here. Words in brackets tell the shape of the fitted curve; partial curves, single points and poor fits give uncertain potencies.

Test: qHTS Assay to Find Inhibitors of Chronic Active B-Cell Receptor Signaling
Settings: ABC-DLBCL IkBa-CBG/CBR reporter, luminescence ratio (green luciferase fused to IkBa over red control in TMD8 lymphoma cells), 4 h
Summary of the method: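 Concentration-response series (up to 46 uM) were applied to TMD8 dual-reporter cells for 4 h at 37C with doxycycline. Green/red ratio, after filter-overlap correction, defined %Activity; red signal alone was normalised to basal cells and zero luminescence.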

[1] = measured here: CBR red luminescence, cell number
[2] = measured here: IkBa-CBG green luminescence

Row | Compound | AC50 [1] | AC50 [2]
1 | CCOc1cccc2cc(-c3cn4c(n3)sc3ccccc34)c(=O)oc12 | 0.282 µM [falling, full curve, poor fit] | –
2 | CC(C)C[C@H](N)c1nnc(SCC(=O)Nc2ccc(Br)cc2)o1 | 12.6 µM [falling, single point] | –
3 | Cc1csc(NC(=O)c2ccc3c(c2)OCO3)n1 | 15.8 µM [falling, single point] | –
4 | c1ccc(-c2nc3ccccc3nc2-c2ccccn2)nc1 | 29.1 µM [rising, single point] | –
5 | Cc1cccc2nc(CSc3nc4[nH]ncc4c(=O)n3-c3ccccc3Cl)cc(=O)n12 | 3.26 µM [rising, partial curve, poor fit] | 10.3 µM [falling, partial curve]
6 | O=S(=O)(c1ccc2c(c1)OCCO2)N1CCC(c2nc3ccc(Cl)cc3[nH]2)CC1 | 2.91 µM [falling, single point] | –
7 | CC(=O)N/C(=C/c1ccc2c(c1)OCO2)C(=O)O | 3.55 µM [falling, partial curve] | –
8 | O=C(CSc1nc2ccccc2o1)N1CCN(C(=O)c2ccco2)CC1 | 29.1 µM [rising, single point] | –
9 | O=[N+]([O-])c1cncc([N+](=O)[O-])c1Nc1cccc(O)c1 | 20 µM [falling, partial curve, poor fit] | –
10 | COC(=O)[C@H](Cc1ccccc1)NC(=O)NCCc1ccc(F)cc1 | 10 µM [rising, partial curve] | –
11 | O=C(CN1CCN(Cc2ccccc2)CC1)Nc1ccc2c(c1)CCC2 | 35.5 µM [rising, single point] | –
12 | Cc1ccn2c(=O)nc(SCC(=O)N3N=C(c4cccs4)CC3c3ccc(F)cc3)nc2c1 (configuration not stated) | 23.1 µM [falling, single point] | –
13 | O=C(Cc1ccccc1)Nc1ccc(CN2CCOCC2)cc1 | 7.31 µM [rising, partial curve, poor fit] | –
14 | Cc1cccc(/C(N)=N/OC(=O)CCCc2ccccc2)c1 | 3.55 µM [rising, full curve] | –
15 | CC1(C)Oc2ccc3ccc(=O)oc3c2/C(=C/NNC(N)=O)C1=O | 3.55 µM [rising, partial curve, poor fit] | –
16 | Cc1ccc(C(=O)CSc2nnc(COc3cc(C)cc(C)c3)o2)cc1 | 20.6 µM [rising, single point] | –
17 | O=C(/C=C\c1ccco1)Nc1nc(-c2ccc3ccccc3c2)cs1 | 18.4 µM [falling, single point] | 20.6 µM [rising, partial curve, poor fit]
18 | O=C(CCCSc1nc2ccccc2c(=O)[nH]1)c1ccccc1 | 2.51 µM [rising, full curve] | –
19 | CCCCn1c(N)c(N(CCC(C)C)C(=O)CSc2nnc(Nc3ccccc3)s2)c(=O)[nH]c1=O | 14.1 µM [falling, partial curve, poor fit] | –
20 | COc1cccc(CN(C)CC(O)COC(c2ccccc2)c2ccccc2C)c1 (configuration not stated) | 7.94 µM [falling, partial curve] | –
21 | Cn1c(=O)c2c(ncn2CC(=O)OCC(=O)Nc2sccc2C(N)=O)n(C)c1=O | 0.164 µM [rising, full curve, poor fit] | –

Row | Compound | AC50 [1] | AC50 [2]
22 | O=C(CCN1CCN(c2ccccc2)CC1)N/N=C/c1ccccc1O | 35.5 µM [rising, single point] | –
23 | COc1cc(Nc2c3ccccc3nc3ccccc23)cc(OC)c1OC | 15.8 µM [falling, partial curve] | –
24 | CCN(CC)C(=O)c1sc2c(c1C)c(=O)n(-c1ccccc1)c(=O)n2Cc1cc(=O)n2ccccc2n1 | 0.355 µM [rising, full curve] | –
25 | COc1ccc(C2c3[nH]c4ccccc4c3CCN2Cc2cccn2-c2ncccn2)cc1C (configuration not stated) | 17.8 µM [falling, single point] | –
26 | O=C(NCc1ccc2c3c(cccc13)C(=O)N2)c1cccs1 | 14.1 µM [falling, partial curve] | –
27 | COC(=O)c1ccc2nc(Nc3nc4ccc(F)cc4s3)sc2c1 | 0.0326 µM [falling, full curve, poor fit] | 0.58 µM [rising, full curve, poor fit]
28 | COc1ccc(C2NC(c3ccc(OC)cc3)C([N+](=O)[O-])C(C)(C)C2[N+](=O)[O-])cc1 (configuration not stated) | 35.5 µM [rising, partial curve, poor fit] | –
29 | CC(C)Cn1nc(NC(=O)c2ccco2)c2cc3ccccc3nc21 | 0.398 µM [falling, full curve, poor fit] | –
30 | CC(C)c1ccc(NC(=O)C(c2ccccc2)N2CC(=O)Nc3ccccc32)cc1 (configuration not stated) | 23.1 µM [rising, partial curve] | –
31 | CN1CCN(S(=O)(=O)c2cc([N+](=O)[O-])ccc2Cl)CC1 | 35.5 µM [rising, single point] | –
32 | CC(NCC(=O)Nc1cc(S(=O)(=O)N2CCOCC2)ccc1Cl)c1ccc(Cl)cc1Cl (configuration not stated) | 18.4 µM [falling, single point] | –
33 | S=c1[nH]c2cc(-c3ccccc3)ccc2o1 | 5.62 µM [rising, single point] | –
34 | COc1ccccc1NC(=S)N(CCCN(C)C)Cc1cc2cc3c(cc2[nH]c1=O)OCO3 | 11.2 µM [falling, partial curve] | –
35 | COc1cc(CNn2nnnc2N)cc(Br)c1OCC(=O)NC(C)(C)C | 0.794 µM [rising, full curve, poor fit] | –
36 | CCCNC(=O)Nc1ccc(C)cc1C | 0.562 µM [rising, full curve, poor fit] | –
37 | CC(C)Oc1ccc(C2CC(=O)N(C)C2=O)cc1 (configuration not stated) | 17.8 µM [rising, partial curve, poor fit] | –
38 | CCCCOC(=O)CCn1c(=S)oc2ccccc21 | 35.5 µM [rising, single point] | –
39 | CCOC(=O)CCSc1nc(C)c2cc(C)c(C)cc2n1 | 8.2 µM [falling, partial curve, poor fit] | –
40 | O=C(NCCN1CCCCCC1)c1ccc(CS(=O)(=O)c2ccc(Br)cc2)o1 | 5.8 µM [falling, partial curve, poor fit] | –
41 | O=C(O)c1ccccc1C(=O)NCCc1c(C(=O)O)[nH]c2ccc(Cl)cc12 | 35.5 µM [rising, partial curve, poor fit] | –
42 | CC(=O)Nc1ccccc1-c1nc2cc(C#N)c(C#N)cc2[nH]c1=O | 5.01 µM [rising, single point] | –

Retrieved one by one from the list above:
Row | Compound | AC50 [1] | AC50 [2]
15 | CC1(C)Oc2ccc3ccc(=O)oc3c2/C(=C/NNC(N)=O)C1=O | 3.55 µM [rising, partial curve, poor fit] | –
30 | CC(C)c1ccc(NC(=O)C(c2ccccc2)N2CC(=O)Nc3ccccc32)cc1 (configuration not stated) | 23.1 µM [rising, partial curve] | –
23 | COc1cc(Nc2c3ccccc3nc3ccccc23)cc(OC)c1OC | 15.8 µM [falling, partial curve] | –
4 | c1ccc(-c2nc3ccccc3nc2-c2ccccn2)nc1 | 29.1 µM [rising, single point] | –

(listing goes on)

Row | Compound | AC50 [1] | AC50 [2]
43 | COc1ccccc1NS(=O)(=O)c1ccc(O)c(C(=O)OCC(=O)c2ccc(Cl)cc2Cl)c1 | 2.82 µM [falling, partial curve, poor fit] | –
44 | O=C(COC(=O)c1ccccc1O)Nc1ccc(OC(F)F)cc1 | 2.31 µM [rising, partial curve, poor fit] | –
45 | COc1ccc(CNC[C@@H](CCCCN(C)Cc2ccc(OC)cc2)N2C[C@H](c3ccccc3)N(CCc3ccc(Cl)c(Cl)c3)C(=O)C2=O)cc1 | 22.4 µM [rising, single point] | –
46 | COc1ccc(C(=O)/C=C/c2ccc(OC)c(CN3CCOCC3)c2)cc1 | 25.9 µM [falling, single point] | –
47 | O=S1(=O)Nc2c(ccc3cccnc23)-c2ccccc21 | 1 µM [rising, full curve] | 1.58 µM [falling, full curve]
48 | COc1ccc(-c2[nH]ncc2/C=N\NS(=O)(=O)c2ccccc2)cc1OC | 6.51 µM [rising, single point] | –
49 | Oc1[nH]c2ccccc2c1N=NC(=S)NCC1CCCO1 (configuration not stated) | – | 29.1 µM [falling, partial curve, poor fit]
50 | CCOC(=O)c1ccc(NC(=O)C2CC2)cc1 | 15.8 µM [rising, partial curve, poor fit] | –
51 | CSc1ccccc1NC(=O)COC(=O)c1ccc(O)cc1 | 3.98 µM [falling, full curve] | –
52 | CCOC(=O)N1CCN(C(=O)c2cccc(S(=O)(=O)Nc3ccc(Br)cc3)c2)CC1 | 5.17 µM [rising, single point] | –
53 | Cc1cc(OCC(=O)NCCO)ccc1Cl | 0.116 µM [falling, full curve, poor fit] | –
54 | C/C(=N\Nc1ccc([N+](=O)[O-])cc1)c1cccc(N)c1 | 1.58 µM [rising, partial curve, poor fit] | –
55 | Cc1ccccc1OCC(O)Cn1c(NCc2ccco2)nc2c1c(=O)n(C)c(=O)n2C (configuration not stated) | 28.2 µM [falling, single point] | –
56 | Cc1ccc(CSc2ccc(-c3ccco3)nn2)cc1 | 2.91 µM [rising, full curve, poor fit] | –
57 | Cc1nc(NC(=O)C(C)Oc2cccc(Cl)c2)sc1C(=O)N(C)C (configuration not stated) | 23.1 µM [rising, partial curve, poor fit] | –
58 | Cc1cccc(-n2cnc(C(=O)NC3CCCCCC3)c2)n1 | 1.12 µM [falling, full curve] | –
59 | N#C/C(C(=S)Nc1ccccc1)=C1/NN=C(N2CCOCC2)N1c1ccccc1 | 35.5 µM [rising, single point] | 25.1 µM [falling, single point]
60 | CCN1C(=O)CC(n2c(C)nc3ccccc32)C1=O (configuration not stated) | 29.1 µM [rising, single point] | –
61 | Cc1ccc(C(=O)NCC(=O)OCc2csc(-c3ccccc3)n2)cc1 | 29.1 µM [rising, single point] | –
62 | CCc1cc(CC)c(/C=N/NC(N)=O)c(CC)c1/C=N/NC(N)=O | 5.62 µM [falling, full curve] | –
